The other results are listed elsewhere or left out.

By UniProt entry, the sequences of proteins in these tests, tags left out.
UniProt Q0JBA9, entry or part of it: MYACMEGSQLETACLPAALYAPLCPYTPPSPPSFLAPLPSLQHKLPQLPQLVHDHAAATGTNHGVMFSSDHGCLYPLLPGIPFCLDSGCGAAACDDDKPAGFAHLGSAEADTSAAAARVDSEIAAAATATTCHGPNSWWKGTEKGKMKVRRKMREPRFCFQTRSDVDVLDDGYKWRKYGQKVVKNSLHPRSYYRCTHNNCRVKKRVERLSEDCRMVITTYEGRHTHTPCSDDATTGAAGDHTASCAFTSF

This assay concerns the target OsWRKY34 (Oryza sativa, UniProt Q0JBA9 1-250). Description: protein-binding microarray (RPBM); PBS, 2% BSA, 51.3 ng/ul salmon testes DNA, 50 uM zinc acetate, 200 nM TF, 25 C, 1 h; high values mean tight binding. The conditions noted are these: protein: recombinant; tags: N-terminal polyhistidine and DsRed monomer fusion (pET32a); label: CyDye5-dUTP incorporated in the synthesized complementary strand; 3' TTTTT single-stranded linker to array surface; dsDNA, one strand shown. The essentials: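 Binding signal here means per-feature fluorescence intensity in arbitrary units. The values were read on an Axon 4000B scanner after a custom Agilent array, double-stranded by primer extension with Cy5-dUTP, was incubated with 200 nM protein at 25 °C for 1 h in PBS with 2% BSA, salmon testes DNA and 50 µM zinc acetate, then washed. The proteins were transcription factors with an N-terminal polyhistidine tag and DsRed, expressed in E. coli BL21-CodonPlus and purified on Ni–NTA.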
As to “GCTGGGCTCCATCTTTCGTTTTTTGGGCCGTCCATCATGTCGGAGTCACCTAGTGCAG”, the binding signal is 9100 fluorescence intensity (a.u.).

For “AACATTTTACACTTTCCTTGAGTTTTAGAAGGATTTACCTCGGAGTCACCTAGTGCAG”, the binding signal was 9440 fluorescence intensity (a.u.).

For the sequence “AGCAAGCTACATGGTTAGTCACCTCTACCAATTGAATTTCCGGAGTCACCTAGTGCAG”, the binding signal is 8800 fluorescence intensity (a.u.).

As for “TGGGGTGGAGGGGCGAGCAACGGGCGTAGCAAGCCGAAGACGGAGTCACCTAGTGCAG”, the binding signal is 9660 fluorescence intensity (a.u.).

“ATTTTAGCCTCTATTTCCCTTCTTTTCTTACTTTTTTTTACGGAGTCACCTAGTGCAG”: the binding signal is 10600 fluorescence intensity (a.u.).

In the case of “GCATCGTCCTGTGAGTTTCTCTCTGCACCTCCTCTCCTCACGGAGTCACCTAGTGCAG”, the binding signal is 10200 fluorescence intensity (a.u.).

“ACTACTCGTCTACTTGCCTACGGGAGGAAGCAATAATCAACGGAGTCACCTAGTGCAG”: the binding signal is 8180 fluorescence intensity (a.u.).

As to “CTACATCTTCTCTCGCTATCTCTCTCTGTACTCTCTCTCTCGGAGTCACCTAGTGCAG”, the binding signal was 11400 fluorescence intensity (a.u.).

Regarding “CGTCCTTATATAATTGTTTTACTTGGTGATTTCATCTGGTCGGAGTCACCTAGTGCAG”, the binding signal was 64500 fluorescence intensity (a.u.).

As to “TTTTCCTGTTTCTGTGGCTATGTCCCGTTTGGTTACGTTCCGGAGTCACCTAGTGCAG”, the binding signal was 14200 fluorescence intensity (a.u.).

Turning to “ACTTGTTGCTTATCTTCACACACGATCAGATGAAGATTCTCGGAGTCACCTAGTGCAG”, the binding signal is 10800 fluorescence intensity (a.u.).

Take “AGGATTCAATTTGGACTTTGGTGGAGGGGAGGGGCTGCTGCGGAGTCACCTAGTGCAG”: the binding signal was 22100 fluorescence intensity (a.u.).

Take “AGCCGTCTCAGCCCCGGCGCCGTCATCTTCCGTCTTAGCCCGGAGTCACCTAGTGCAG”: the binding signal was 8220 fluorescence intensity (a.u.).

“CGACAAATTTTTACCAATACTAATCGTTTTTTTTTTCTCGCGGAGTCACCTAGTGCAG”: the binding signal was 8160 fluorescence intensity (a.u.).

In the case of “AATCTCTCTCTCGATCCGACTCTGCTCTCTATCCGGCCTCCGGAGTCACCTAGTGCAG”, the binding signal was 9950 fluorescence intensity (a.u.).

Turning to “CGAATATATTTCTGGATTGTGGTTGGTTCTTTTGCTACTGCGGAGTCACCTAGTGCAG”, the binding signal was 8380 fluorescence intensity (a.u.).

Take “AGTTTGCAATCGCGTCACGTATCCACTCTGAATTCATGTCCGGAGTCACCTAGTGCAG”: the binding signal is 9200 fluorescence intensity (a.u.).

For the sequence “GTAAGTTTTACTTTCAGTGTATGAACTGTGCCCTGTATTTCGGAGTCACCTAGTGCAG”, the binding signal was 8170 fluorescence intensity (a.u.).

As to “AGAGACTGGTGATGGACTTTACTCTTTTCTTCTCCAACACCGGAGTCACCTAGTGCAG”, the binding signal is 8330 fluorescence intensity (a.u.).

For “GAGCAGACACATTCTCTCTCGCTCTCTCTATCTTTTTTTTCGGAGTCACCTAGTGCAG”, the binding signal is 11900 fluorescence intensity (a.u.).

With “TTCGCTGCCCGTATACCATTGACCTAGCTTACTACCGTACCGGAGTCACCTAGTGCAG”, the binding signal was 10000 fluorescence intensity (a.u.).

Take “GGAGGGAGTAAGTGTTAAAATATGTGTGTTTTTCTGTAACCGGAGTCACCTAGTGCAG”: the binding signal is 8750 fluorescence intensity (a.u.).

Take “CCTCGCCGCTTCGCTTCGCTTCACCCTTTTTCGGTTCGCTCGGAGTCACCTAGTGCAG”: the binding signal was 13300 fluorescence intensity (a.u.).

Take “TGGATCAGACTTTCCGACCTTATTTCAGTTTTAGTTTCCGCGGAGTCACCTAGTGCAG”: the binding signal is 9500 fluorescence intensity (a.u.).

As to “AATATTGGACTGTGATTCACATGTTAGATGTTTTCTCGCCCGGAGTCACCTAGTGCAG”, the binding signal is 8330 fluorescence intensity (a.u.).

Consider “AACTGATCTCCTCCTACTCCCCGGCCGCCGCGGCGCCGTCCGGAGTCACCTAGTGCAG”, for which the binding signal was 8160 fluorescence intensity (a.u.).

Consider “CAAGCGCGCCCGCCTTCAAATTTTCGGCCAAATATTCCCGCGGAGTCACCTAGTGCAG”, for which the binding signal was 8390 fluorescence intensity (a.u.).

On to “ACATGCCTGCGCCTTTGACCTTCCTGTGAGATGAACACGTCGGAGTCACCTAGTGCAG”, for which the binding signal was 11200 fluorescence intensity (a.u.).

As to “CCTCCCACGCCGCCACCCGCGCCCTGATGTCCGCGTCCGTCGGAGTCACCTAGTGCAG”, the binding signal was 8250 fluorescence intensity (a.u.).

Turning to “GCATCAACCCACATCAAACATTCCACACAACATATAATTCCGGAGTCACCTAGTGCAG”, the binding signal was 8860 fluorescence intensity (a.u.).

Take “TCTGGAACATATCCTCTCTCCAATCACGCCCATTTCCATTCGGAGTCACCTAGTGCAG”: the binding signal was 9070 fluorescence intensity (a.u.).

Consider “GTAGGTGTTAATTAGCTTTAGGTGTCTTTGTTCCGCGGCCCGGAGTCACCTAGTGCAG”, for which the binding signal is 8270 fluorescence intensity (a.u.).

In the case of “TCGGTTTGTCAGTTTCTCTGTTCTTTTTTACTGGATTGCACGGAGTCACCTAGTGCAG”, the binding signal is 10500 fluorescence intensity (a.u.).

Turning to “ACACGACCCAAATACACTAGTGCGCTGACTGTTTTTTTACCGGAGTCACCTAGTGCAG”, the binding signal was 8590 fluorescence intensity (a.u.).

In the case of “CCCGGCTCATATTCTTCTATGATAATACATGATTATCTAACGGAGTCACCTAGTGCAG”, the binding signal was 11300 fluorescence intensity (a.u.).

In the case of “GCTGCTACTTTTTTTTTAAACTCTAAAAACATCTTGGCTACGGAGTCACCTAGTGCAG”, the binding signal is 8850 fluorescence intensity (a.u.).

With “AATCCACACCTTGTTGTGGTGCTAACTGCTGCATGCCTTTCGGAGTCACCTAGTGCAG”, the binding signal was 9940 fluorescence intensity (a.u.).

In the case of “GTACAGTGACAGCCCATCTCCTCCACCTCGCCGTCGTTGTCGGAGTCACCTAGTGCAG”, the binding signal is 10600 fluorescence intensity (a.u.).

As to “TCTTGAATTTCCCGTTCACTAGTATTTCGTGAGACATATACGGAGTCACCTAGTGCAG”, the binding signal is 8490 fluorescence intensity (a.u.).

As for “AACATCTTTTTCCGTCCCGAACACAACCTAACAACTTTTCCGGAGTCACCTAGTGCAG”, the binding signal is 9600 fluorescence intensity (a.u.).

With “CAAGTTTGTGTACTGCAGTTTGTGCTTTGCAAGTTCTTGTCGGAGTCACCTAGTGCAG”, the binding signal is 9340 fluorescence intensity (a.u.).

As to “GAACATGTGAAGGTTTTCTTTAGTACTAGTATTTTTTTTGCGGAGTCACCTAGTGCAG”, the binding signal is 8080 fluorescence intensity (a.u.).

“AGCTAGGAAGGGGAGGGGCAGTGGTGGTGGTAGCTGCATCCGGAGTCACCTAGTGCAG”: the binding signal was 10900 fluorescence intensity (a.u.).

As to “GGTGCACTCCTGATCCTTCTTCTCTCTGTGCCAATTTATACGGAGTCACCTAGTGCAG”, the binding signal is 8500 fluorescence intensity (a.u.).

With “CGTTTTTACCCTATACTCGCACAGTCCAACCACACCACGCCGGAGTCACCTAGTGCAG”, the binding signal is 8800 fluorescence intensity (a.u.).

As for “CCATACTTTCCGTCCAGATAATTGTCCAGTCCAAAGACACCGGAGTCACCTAGTGCAG”, the binding signal is 8560 fluorescence intensity (a.u.).

Take “ATCACCCCGCCCAACTCCGTTACACAGAGCCGCCGCCGTCCGGAGTCACCTAGTGCAG”: the binding signal is 10000 fluorescence intensity (a.u.).

Regarding “TTCGTTGACCAAGTTTAATTCAAATTCAATTCAATTTTAACGGAGTCACCTAGTGCAG”, the binding signal is 9760 fluorescence intensity (a.u.).

On to “GGGTACTACTCCCAGCTCGCCTCCATGCCGCTCAAGTCCGCGGAGTCACCTAGTGCAG”, for which the binding signal is 8600 fluorescence intensity (a.u.).

Turning to “TATTGGCTATCCGTGCTGGAATCCTGAACCCTTTACCTCTCGGAGTCACCTAGTGCAG”, the binding signal was 8050 fluorescence intensity (a.u.).

Consider “GCTGGCCCACTCTACGTAACCTGTTACCTGCAGCCTCCTTCGGAGTCACCTAGTGCAG”, for which the binding signal is 9440 fluorescence intensity (a.u.).

With “AACTCACTGGAACAGATCCAATGCCTTCTTACTCCCTTTTCGGAGTCACCTAGTGCAG”, the binding signal is 8690 fluorescence intensity (a.u.).

As for “TTGAGTTGTTGGGCTGGGCAGTTGGGCTTCCTTATTGGGTCGGAGTCACCTAGTGCAG”, the binding signal is 10100 fluorescence intensity (a.u.).

As for “TGTTCTCCTACAGTCTCATCACCGATTGCTACTCCTATTACGGAGTCACCTAGTGCAG”, the binding signal is 10500 fluorescence intensity (a.u.).

Values taken from PMC7819943, “Rice protein-binding microarrays: a tool to detect cis-acting elements near promoter regions in rice”.
